According to patent US20090099195A1 (ASTRAZENECA AB, priority 2007, published 2009):
pIC50: −log10 of the molar value. Some results were stated once for a whole list of compounds, not compound by compound.

molecular target: T1, P2X3 receptors (UniProt P56373); assay: FLIPR antagonist assay, receptor or clone not stated (less preferred compounds); conditions: compounds also tested
T1 sequence (P56373 1-397): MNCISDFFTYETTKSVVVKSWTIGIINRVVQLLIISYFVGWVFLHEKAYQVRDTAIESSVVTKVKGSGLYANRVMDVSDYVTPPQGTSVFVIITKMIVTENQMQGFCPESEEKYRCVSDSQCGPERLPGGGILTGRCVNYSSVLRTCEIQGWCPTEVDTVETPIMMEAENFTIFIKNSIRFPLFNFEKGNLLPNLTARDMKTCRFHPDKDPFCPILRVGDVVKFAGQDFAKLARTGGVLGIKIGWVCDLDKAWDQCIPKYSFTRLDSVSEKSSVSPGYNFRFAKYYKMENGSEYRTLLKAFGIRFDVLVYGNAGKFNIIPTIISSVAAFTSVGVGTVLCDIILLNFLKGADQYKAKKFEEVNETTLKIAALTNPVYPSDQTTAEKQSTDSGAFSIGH

pIC50, < 5.48:
COCCNc1nc(NCc2cnc3ccccc3c2)c2c(n1)C(=O)N(C(C)C)C2 [2-[(2-methoxyethyl)amino]-6-(1-methylethyl)-4-[(quinolin-3-ylmethyl)amino]-5,6-dihydro-7H-pyrrolo[3,4-d]pyrimidin-7-one]
CC(=O)N1CCN(c2nc(NCc3ccc4nccnc4c3)c3c(n2)C(=O)N(C(C)C)C3)CC1 [2-(4-acetylpiperazin-1-yl)-6-(1-methylethyl)-4-[(quinoxalin-6-ylmethyl)amino]-5,6-dihydro-7H-pyrrolo[3,4-d]pyrimidin-7-one]
COCCN1CCN(c2nc(N3CCOCC3)nc3c2CN(C(C)C)C3=O)CC1 [4-[4-(2-methoxyethyl)piperazin-1-yl]-6-(1-methylethyl)-2-morpholin-4-yl-5,6-dihydro-7H-pyrrolo[3,4-d]pyrimidin-7-one]
CC(=O)N1CCN(c2nc3c(c(N(CCN(C)C)Cc4ccccc4)n2)CN(C(C)C)C3=O)CC1 [2-(4-acetylpiperazin-1-yl)-4-{benzyl[2-(dimethylamino)ethyl]amino}-6-(1-methylethyl)-5,6-dihydro-7H-pyrrolo[3,4-d]pyrimidin-7-one]
COc1cccc(-n2cc(CN(C)c3nc(N4CCN(C(C)=O)CC4)nc4c3CN(C(C)C)C4=O)cn2)c1 [2-(4-acetylpiperazin-1-yl)-4-[{[1-(3-methoxyphenyl)-1H-pyrazol-4-yl]methyl}(methyl)amino]-6-(1-methylethyl)-5,6-dihydro-7H-pyrrolo[3,4-d]pyrimidin-7-one]
COc1ccccc1C1CCCN1c1nc(N2CCN(C(C)=O)CC2)nc2c1CN(C(C)C)C2=O (stereo not shown) [2-(4-acetylpiperazin-1-yl)-4-[2-(2-methoxyphenyl)pyrrolidin-1-yl]-6-(1-methylethyl)-5,6-dihydro-7H-pyrrolo[3,4-d]pyrimidin-7-one]
CC(C)N1Cc2c(NCc3cnc4ccccc4c3)nc(N3CCCN(C)CC3)nc2C1=O [2-(4-methyl-1,4-diazepan-1-yl)-6-(1-methylethyl)-4-[(quinolin-3-ylmethyl)amino]-5,6-dihydro-7H-pyrrolo[3,4-d]pyrimidin-7-one]
CC(C)N1Cc2c(NCc3cnc4ccccc4c3)nc(NCC(c3ccccc3)N(C)C)nc2C1=O (stereo not shown) [2-{[2-(dimethylamino)-2-phenylethyl]amino}-6-(1-methylethyl)-4-[(quinolin-3-ylmethyl)amino]-5,6-dihydro-7H-pyrrolo[3,4-d]pyrimidin-7-one]
CC(=O)N1CCN(c2nc(NC3CCc4cc(F)ccc43)c3c(n2)C(=O)N(C(C)C)C3)CC1 (stereo not shown) [2-(4-acetylpiperazin-1-yl)-4-[(5-fluoro-2,3-dihydro-1H-inden-1-yl)amino]-6-(1-methylethyl)-5,6-dihydro-7H-pyrrolo[3,4-d]pyrimidin-7-one]
CC(=O)Nc1cccc(Nc2nc(N3CCOCC3)nc3c2CN(C(C)C)C3=O)c1 [N-(3-{[6-(1-methylethyl)-2-morpholin-4-yl-7-oxo-6,7-dihydro-5H-pyrrolo[3,4-d]pyrimidin-4-yl]amino}phenyl)acetamide]
CC(C)N1Cc2c(nc(N3CCOCC3)nc2N(C)c2ccc(Cl)cc2)C1=O [4-[(4-chlorophenyl)(methyl)amino]-6-(1-methylethyl)-2-morpholin-4-yl-5,6-dihydro-7H-pyrrolo[3,4-d]pyrimidin-7-one]
CCN(CCN(C)C)c1nc(N2CCOCC2)nc2c1CN(C(C)C)C2=O [4-{[2-(dimethylamino)ethyl](ethyl)amino}-6-(1-methylethyl)-2-morpholin-4-yl-5,6-dihydro-7H-pyrrolo[3,4-d]pyrimidin-7-one]
CC(=O)N1CCN(c2nc(NCc3ccc(C)cn3)c3c(n2)C(=O)N(C(C)C)C3)CC1 [2-(4-acetylpiperazin-1-yl)-6-(1-methylethyl)-4-{[(5-methylpyridin-2-yl)methyl]amino}-5,6-dihydro-7H-pyrrolo[3,4-d]pyrimidin-7-one]
